# Percent effect of library compounds

Mtb glucose medium: 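Growth of Mycobacterium tuberculosis over 3 days (7H9 medium with glucose and tyloxapol); the read-out is not stated. Tested at 50 µM. Higher reads as more growth inhibition (inferred: compounds with an IC50 in retests scored well above the rest). Of about 69,000 compounds tested this way, about 760 (1.1%) reached 50% or more in at least one test.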
Mtb cholesterol medium: 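Whole-cell growth test on Mycobacterium tuberculosis, read after 4 days in a medium based on cholesterol and the lipid DPPC; the read-out is not stated. Compounds at 50 µM. The record gives no direction; compounds that gave an IC50 in retests scored well above the rest, so higher reads as more growth inhibition. Of about 69,000 compounds tested this way, about 370 (0.54%) reached 50% or more in at least one test.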

Values are the deposited “Percent Effect”, in %.
The controls that fix the scale are not given in the record; negative values are as filed.
This is an unselected part of the compounds tested.
Two or more numbers in one place are separate tests of the same structure; such repeats can differ widely.

Compound,Mtb glucose medium,Mtb cholesterol medium
O=C(O)C(F)(F)F.[H][C@@]12CCCO[C@]1([H])[C@H](NC(=O)c1cnccn1)CN(c1ncccn1)C2,0.4056,10.34
Cc1cc(CN[C@H](C(N)=O)[C@@H](C)O)c(C)s1,-8.745 & -0.8224,-5.327 & -10.38
CCOCCCNC(=O)CN(c1ccc(C)c(C)c1)S(C)(=O)=O,-4.149,-12.44
Cn1cc(C2SCC(=O)Nc3c2c(=O)[nH]n3C2CCOCC2)cn1 (stereo not shown),0.8018,-13.16
CCC1(CC)CC(=O)N(CC(O)c2cccc(Br)c2)C1=O (stereo not shown),-25.05,-2.339
CCC(C)(C)n1nnnc1C(c1cccs1)N1CCc2ccccc21 (stereo not shown),32.89,18.4 & 4.007
O=C(c1cnn[nH]1)N(Cc1ccncc1)CC1CCCO1 (stereo not shown),5.049 & -19.6,-23.31
CN(Cc1cccc(O)c1)Cc1cnn(C)c1,-22.37,19.87
c1ccc(-c2nnn3c2COC(CNCC2CCOCC2)C3)cc1 (stereo not shown),-29.53,-25.47
Cc1nc(C)c(C(=O)N2CCc3cc(F)ccc3C2C)o1 (stereo not shown),-3.248,2.483
Cc1nnc(NC(=O)NCC(C)N2CCOCC2)s1 (stereo not shown),-30.52,-25.35
CCc1cnc(CNC(=O)NC2CCN(C3CCCC3)CC2)s1,-6.898,-23.99
[H][C@@]12COC[C@]1(C(=O)NCCOC)CN(C1CCOCC1)C2,23.9,-32.79
NCCCn1nc(C(F)(F)F)c2c1CCC2,21.48,-1.981
CN(CCCc1cnn(C)c1)Cc1cc2n(n1)CCCNC2,-29.02,-1.214
c1ccc(OCCNCc2cccs2)nc1,27.72,6.913
O=C(C1CCCc2[nH]ncc21)N1CCCC1 (stereo not shown),5.735,4.062
COc1cccc(CNC(=O)Nc2ccc3[nH]nnc3c2)c1OC,-5.475 & 53.38,14.49
CC(C)(C)c1coc([C@@H]2COCCN2Cc2c[nH]cn2)n1,32.65 & 2.219,6.323
Cc1cccnc1C(NC(=O)CNC(=O)c1ccoc1C)C(C)C (stereo not shown),-31.46,2.915
CS(=O)(=O)N1CC(c2ccnc(Nc3ccccn3)n2)C1,19.9,14.75
CCS(=O)(=O)CCNC(=O)c1ccc(-c2ccc(C)cc2)cc1F,-8.951,-16.94
CCn1cc(NC(=O)C2CCC(=O)N2Cc2ccco2)cn1 (stereo not shown),-4.971 & -6.108,-2.904
N#CC1(NC(=O)Cc2cc(Cl)c3c(c2)OCCO3)CCC1,-8.17,-23.34 & -9.384
Cc1cnn(CC2CN(Cc3cccc(OCC(N)=O)c3)CCO2)c1 (stereo not shown),11.41,4.006
COc1ccc(C2CCCN2S(=O)(=O)N(C)CC(C)C)cc1 (stereo not shown),39.91 & 24.01,27.64
[H][C@@]12CCN(C)[C@]1([H])CN(C(=O)c1csc(NC)n1)C2,21.66,0.9645
Cc1nc[nH]c1C(=O)N1CCCC2(C1)C(=O)N(C)c1ccccc12 (stereo not shown),13.44,4.993
CCc1nc(CN2CCCN(c3nccs3)CC2)no1,-28.5,-12.19
O=C(CN1CCN(C(=O)c2ccccc2)CC1)Nc1ncc(Br)cc1Br,-5.188 & -5.026,10.72
CS(=O)(=O)NCC1CCCCN1C(=O)c1cccc(C(F)(F)F)c1 (stereo not shown),-2.906,1.715
Cc1ccccc1C(CC(=O)N1CCc2sccc2C1)NC(N)=O (stereo not shown),4.395,0.3349
Cc1ccc(C)c(CSc2nnc(C(N)C(C)C)o2)c1.Cl (stereo not shown),-4.927,12.33
Cc1cccc2c1nc1n2[C@@H](CNC(=O)c2ccccn2)COC1,0.2491 & 4.205,-3.767
CCN(CC)S(=O)(=O)N1CCCC(c2ccc(C(=O)O)cc2)C1 (stereo not shown),-2.14,11.7
CCNc1cc2c(nn1)CCN(C(=O)c1ccc(-n3cccn3)nc1)C2,9.274,4.168
Cc1nc(C)n(CC2CCCN2CCc2ccncc2)n1 (stereo not shown),-4.673,-12.6
COc1cccc(-c2ccc(CNC(=O)c3ccc(=O)n(C)c3)cc2)c1,23.97,13.53
COc1ccc(C2CC(=O)Nc3c2nc2n3CCCC2)cc1OC (stereo not shown),-18.61,-42.89
Cc1ccc(-c2ccnc(N3CCC4(CCO4)CC3)n2)c(C)n1,10.69,-0.1627
O=C1CCCN1CCCC(=O)N1CCC2(CC1)[C@H](O)C[C@@H]2O,-20.3,15.45
Cc1c(CN2CCCC(C(=O)c3ccccc3)C2)cc(C#N)n1C (stereo not shown),-15.28,3.282 & -5.099
COCC(=O)Nc1ccccc1Sc1c(C)n[nH]c1C,4.258,-22.63
Cc1cccc(C)c1OCCC(=O)N1CCC(c2nncn2C)CC1,-1.53,-15.85
CCC(O)CNc1ccc(-c2nc(CC(C)C)no2)cn1 (stereo not shown),54.98 & 40.5,32.86
CCc1nc2c(s1)C(N(C)C(C)=O)CCC2 (stereo not shown),7.341,0.7344
CC(C)C(C(=O)N(C)C)c1cccc(Cl)c1 (stereo not shown),-2.755 & 1.563,-0.7459
Cc1oc2c(c1C(=O)N1C[C@H](O)[C@]3(CCCO3)C1)CCCC2,-4.831,-6.015 & 1.988
O=C(O)C(F)(F)F.O=C(O)C(F)(F)F.[H][C@@]12CCCO[C@]1([H])[C@H](Nc1ccc(C)nn1)CN(Cc1cc(C)on1)C2,-10.99,6.347
COC(=O)CC1CCN(C(=O)c2ccccc2-n2nnnc2C)CC1,22.6,8.516
Cn1cc(CNc2ncnc3c2CCN(Cc2ccsc2)CC3)cn1,20.04,20.5
CC(C)c1nnc2n1CCN(C(=O)c1ccnc(N(C)C)c1)C2,-4.984,-15.5
CN(C)C(=O)CN1CCCC1c1nc(N)ncc1-c1ccc(F)cc1 (stereo not shown),12.72,-4.321
O=C(O)C(F)(F)F.O=C(O)C(F)(F)F.c1cc(CN2CCc3ncc(CN4CCCCC4)n3CC2)cs1,-39.19,-20.2
Cc1ccccc1Cc1nc(CSc2nnc(N)n2C2CC2)no1,7.228 & -3.688,-3.704
CCCn1nc(C(=O)N(C)Cc2cnn(C)c2)ccc1=O,23.35,-3.914
O=C(O)C(F)(F)F.O=C(O)C(F)(F)F.[H][C@@]12CCCO[C@]1([H])[C@@H](OCCN(C)C)CN2CC1CC1,-25.83,-24.06
Cc1cc(-c2n[nH]c3c2CN(S(=O)(=O)c2ccsc2)CC3)c(C)o1,-0.6373 & 0.2569,-0.4478
CN(C)Cc1nnc2n1CCN(Cc1cccnc1)C2,10.32 & 3.095,-6.437
COCC1CC2(CCN(Cc3cnn(C)c3)CC2)CN1C(C)C.O=C(O)C(F)(F)F.O=C(O)C(F)(F)F (stereo not shown),-12.29,-13.98
COc1cc(NC(=O)c2ccc(C)cc2C)c(C(=O)N(C)C)cc1OC,-2.868,-0.6597 & -3.861
CC(C)c1nccn1C(C)C(=O)N1CCN(c2ccccc2Cl)CC1 (stereo not shown),22.34 & -1.151,10.11
CC(O)(CCc1ccccc1)CNC(=O)c1cccs1 (stereo not shown),32.48 & 11.09,12

Some entries from above, unchanged:

| Compound | Mtb glucose medium | Mtb cholesterol medium |
|---|---|---|
| `CCN(CC)S(=O)(=O)N1CCCC(c2ccc(C(=O)O)cc2)C1` (stereo not shown) | -2.14 | 11.7 |
| `CC(C)(C)c1coc([C@@H]2COCCN2Cc2c[nH]cn2)n1` | 32.65 & 2.219 | 6.323 |
| `COc1ccc(C2CC(=O)Nc3c2nc2n3CCCC2)cc1OC` (stereo not shown) | -18.61 | -42.89 |
| `O=C(c1cnn[nH]1)N(Cc1ccncc1)CC1CCCO1` (stereo not shown) | 5.049 & -19.6 | -23.31 |
| `CCS(=O)(=O)CCNC(=O)c1ccc(-c2ccc(C)cc2)cc1F` | -8.951 | -16.94 |
| `CC(O)(CCc1ccccc1)CNC(=O)c1cccs1` (stereo not shown) | 32.48 & 11.09 | 12 |
| `CCC(O)CNc1ccc(-c2nc(CC(C)C)no2)cn1` (stereo not shown) | 54.98 & 40.5 | 32.86 |

The values are deposited in ChEMBL (CHEMBL3988442, “University of Dundee, Small-Polar-MMV Screening Library” (2021)).